From article PMC10724393, “FOXA2 Suppression by TRIM36 Exerts Anti‐Tumor Role in Colorectal Cancer Via Inducing NRF2/GPX4‐Regulated Ferroptosis” (Advanced Science, 2023)
These are yes or no findings as the source states them, for the method shown. Binding seen in cells or lysates may run through a third protein. A yes stands for co-enrichment or nearness to the bait. Other partners may have been found.

Protein sequences, listed by entry. Tags and fused reporters are not part of them.
UniProt Q9UNE7: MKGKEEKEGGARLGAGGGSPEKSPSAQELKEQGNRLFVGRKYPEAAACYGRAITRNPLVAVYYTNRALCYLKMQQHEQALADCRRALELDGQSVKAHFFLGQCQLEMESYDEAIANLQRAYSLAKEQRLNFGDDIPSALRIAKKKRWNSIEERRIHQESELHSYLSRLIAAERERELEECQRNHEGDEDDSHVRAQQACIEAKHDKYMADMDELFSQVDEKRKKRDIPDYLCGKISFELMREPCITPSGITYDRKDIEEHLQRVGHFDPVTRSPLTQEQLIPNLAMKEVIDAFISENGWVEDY
UniProt Q99496: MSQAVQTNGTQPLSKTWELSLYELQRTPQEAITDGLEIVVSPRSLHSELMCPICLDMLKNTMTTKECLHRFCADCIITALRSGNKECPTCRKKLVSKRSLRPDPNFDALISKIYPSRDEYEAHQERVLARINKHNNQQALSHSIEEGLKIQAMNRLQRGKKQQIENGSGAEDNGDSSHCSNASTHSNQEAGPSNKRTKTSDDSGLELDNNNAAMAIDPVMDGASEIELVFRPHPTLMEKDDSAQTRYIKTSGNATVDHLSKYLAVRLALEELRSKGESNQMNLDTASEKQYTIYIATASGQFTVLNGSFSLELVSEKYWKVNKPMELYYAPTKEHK
UniProt Q14258: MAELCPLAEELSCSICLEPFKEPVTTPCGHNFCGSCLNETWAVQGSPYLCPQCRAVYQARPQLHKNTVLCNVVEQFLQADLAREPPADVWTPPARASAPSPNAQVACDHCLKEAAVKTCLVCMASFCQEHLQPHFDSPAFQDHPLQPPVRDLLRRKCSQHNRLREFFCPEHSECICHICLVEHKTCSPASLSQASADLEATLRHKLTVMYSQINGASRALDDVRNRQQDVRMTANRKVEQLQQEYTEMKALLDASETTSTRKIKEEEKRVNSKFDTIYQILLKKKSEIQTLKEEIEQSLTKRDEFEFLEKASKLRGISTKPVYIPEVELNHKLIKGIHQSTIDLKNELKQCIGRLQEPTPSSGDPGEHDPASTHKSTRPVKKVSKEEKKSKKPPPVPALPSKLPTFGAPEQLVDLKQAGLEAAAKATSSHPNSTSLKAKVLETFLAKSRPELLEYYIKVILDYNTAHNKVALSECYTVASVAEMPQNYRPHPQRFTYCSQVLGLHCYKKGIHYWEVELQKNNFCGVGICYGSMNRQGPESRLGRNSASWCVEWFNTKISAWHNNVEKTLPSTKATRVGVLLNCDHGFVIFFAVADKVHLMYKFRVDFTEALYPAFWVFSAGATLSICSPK

T1: forkhead box transcription factor A2 (FOXA2), stably transfected (human) (UniProt Q9Y261)
T1 sequence: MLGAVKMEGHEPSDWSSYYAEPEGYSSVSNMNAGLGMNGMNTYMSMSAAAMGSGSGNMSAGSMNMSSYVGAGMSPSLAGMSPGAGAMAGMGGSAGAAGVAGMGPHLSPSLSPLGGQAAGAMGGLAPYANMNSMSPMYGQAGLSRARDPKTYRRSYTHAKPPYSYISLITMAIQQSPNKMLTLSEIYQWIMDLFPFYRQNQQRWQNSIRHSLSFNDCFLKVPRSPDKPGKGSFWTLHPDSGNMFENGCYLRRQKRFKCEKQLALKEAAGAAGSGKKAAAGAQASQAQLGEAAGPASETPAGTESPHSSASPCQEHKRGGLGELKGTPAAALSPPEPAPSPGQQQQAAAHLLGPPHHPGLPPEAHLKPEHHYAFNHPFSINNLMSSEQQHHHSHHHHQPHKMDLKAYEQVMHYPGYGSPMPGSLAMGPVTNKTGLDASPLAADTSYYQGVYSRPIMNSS

B1: tripartite motif containing 36 (TRIM36), endogenous (protein, UniProt Q9NQ86 1-728)
chain: MSESGEMSEFGYIMELIAKGKVTIKNIERELICPACKELFTHPLILPCQHSICHKCVKELLLTLDDSFNDVGSDNSNQSSPRLRLPSPSMDKIDRINRPGWKRNSLTPRTTVFPCPGCEHDVDLGERGINGLFRNFTLETIVERYRQAARAATAIMCDLCKPPPQESTKSCMDCSASYCNECFKIHHPWGTIKAQHEYVGPTTNFRPKILMCPEHETERINMYCELCRRPVCHLCKLGGNHANHRVTTMSSAYKTLKEKLSKDIDYLIGKESQVKSQISELNLLMKETECNGERAKEEAITHFEKLFEVLEERKSSVLKAIDSSKKLRLDKFQTQMEEYQGLLENNGLVGYAQEVLKETDQSCFVQTAKQLHLRIQKATESLKSFRPAAQTSFEDYVVNTSKQTELLGELSFFSSGIDVPEINEEQSKVYNNALINWHHPEKDKADSYVLEYRKINRDDEMSWNEIEVCGTSKIIQDLENSSTYAFRVRAYKGSICSPCSRELILHTPPAPVFSFLFDEKCGYNNEHLLLNLKRDRVESRAGFNLLLAAERIQVGYYTSLDYIIGDTGITKGKHFWAFRVEPYSYLVKVGVASSDKLQEWLRSPRDAVSPRYEQDSGHDSGSEDACFDSSQPFTLVTIGMQKFFIPKSPTSSNEPENRVLPMPTSIGIFLDCDKGKVDFYDMDQMKCLYERQVDCSHTLYPAFALMGSGGIQLEEPITAKYLEYQEDM
B2: MID1, endogenous (protein, UniProt O15344 1-667)
chain: METLESELTCPICLELFEDPLLLPCAHSLCFNCAHRILVSHCATNESVESITAFQCPTCRHVITLSQRGLDGLKRNVTLQNIIDRFQKASVSGPNSPSETRRERAFDANTMTSAEKVLCQFCDQDPAQDAVKTCVTCEVSYCDECLKATHPNKKPFTGHRLIEPIPDSHIRGLMCLEHEDEKVNMYCVTDDQLICALCKLVGRHRDHQVAALSERYDKLKQNLESNLTNLIKRNTELETLLAKLIQTCQHVEVNASRQEAKLTEECDLLIEIIQQRRQIIGTKIKEGKVMRLRKLAQQIANCKQCIERSASLISQAEHSLKENDHARFLQTAKNITERVSMATASSQVLIPEINLNDTFDTFALDFSREKKLLECLDYLTAPNPPTIREELCTASYDTITVHWTSDDEFSVVSYELQYTIFTGQANVVSLCNSADSWMIVPNIKQNHYTVHGLQSGTKYIFMVKAINQAGSRSSEPGKLKTNSQPFKLDPKSAHRKLKVSHDNLTVERDESSSKKSHTPERFTSQGSYGVAGNVFIDSGRHYWEVVISGSTWYAIGLAYKSAPKHEWIGKNSASWALCRCNNNWVVRHNSKEIPIEPAPHLRRVGILLDYDNGSIAFYDALNSIHLYTFDVAFAQPVCPTFTVWNKCLTIITGLPIPDHLDCTEQLP

target: T1, forkhead box transcription factor A2 (FOXA2), stably transfected (human); experiment: affinity purification with mass spectrometry; IP with anti-FOXA2 antibody vs isotype-control IgG from HCT-116 and HEK293T cells stably transfected with FOXA2; proteins found in both cell lines

binding	Molecule
binds	CHIP, endogenous (from UniProt Q9UNE7 1-303)
binds	RNF2, endogenous (from UniProt Q99496 1-336)
binds	TRIM25, endogenous (from UniProt Q14258 1-630)
binds	B1
binds	B2
